Publication PMC11098812

The chains behind the UniProt entries cited, without tags or fusion partners. Where a name states a change or a piece, a line headed by the entry shows the natural chain unless it says otherwise.
UniProt Q9BYX4: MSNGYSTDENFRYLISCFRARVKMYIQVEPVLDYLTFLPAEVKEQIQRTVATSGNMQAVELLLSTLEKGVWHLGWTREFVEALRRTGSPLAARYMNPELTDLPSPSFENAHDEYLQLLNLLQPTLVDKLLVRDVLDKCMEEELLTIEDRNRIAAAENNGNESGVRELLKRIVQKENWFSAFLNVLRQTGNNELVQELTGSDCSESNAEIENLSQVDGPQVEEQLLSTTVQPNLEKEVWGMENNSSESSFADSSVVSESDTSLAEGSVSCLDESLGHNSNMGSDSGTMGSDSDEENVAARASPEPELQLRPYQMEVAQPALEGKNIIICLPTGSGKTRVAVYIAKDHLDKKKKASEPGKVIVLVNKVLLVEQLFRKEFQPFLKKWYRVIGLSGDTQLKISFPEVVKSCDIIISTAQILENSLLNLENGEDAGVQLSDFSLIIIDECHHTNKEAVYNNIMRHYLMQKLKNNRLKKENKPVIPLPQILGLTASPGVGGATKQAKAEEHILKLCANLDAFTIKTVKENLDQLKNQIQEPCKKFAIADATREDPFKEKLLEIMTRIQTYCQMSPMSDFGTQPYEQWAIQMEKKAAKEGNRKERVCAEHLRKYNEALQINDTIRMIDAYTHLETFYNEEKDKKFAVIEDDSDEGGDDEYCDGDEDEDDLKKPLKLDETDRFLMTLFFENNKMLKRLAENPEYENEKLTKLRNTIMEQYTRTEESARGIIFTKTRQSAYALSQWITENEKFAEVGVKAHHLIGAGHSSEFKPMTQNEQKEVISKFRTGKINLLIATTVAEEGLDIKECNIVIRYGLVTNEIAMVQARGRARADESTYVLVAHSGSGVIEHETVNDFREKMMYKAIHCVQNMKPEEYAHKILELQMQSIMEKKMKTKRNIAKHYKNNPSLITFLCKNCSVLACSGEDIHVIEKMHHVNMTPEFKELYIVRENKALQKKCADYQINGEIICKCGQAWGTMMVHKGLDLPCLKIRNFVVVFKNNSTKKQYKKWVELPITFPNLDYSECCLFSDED
UniProt Q61824: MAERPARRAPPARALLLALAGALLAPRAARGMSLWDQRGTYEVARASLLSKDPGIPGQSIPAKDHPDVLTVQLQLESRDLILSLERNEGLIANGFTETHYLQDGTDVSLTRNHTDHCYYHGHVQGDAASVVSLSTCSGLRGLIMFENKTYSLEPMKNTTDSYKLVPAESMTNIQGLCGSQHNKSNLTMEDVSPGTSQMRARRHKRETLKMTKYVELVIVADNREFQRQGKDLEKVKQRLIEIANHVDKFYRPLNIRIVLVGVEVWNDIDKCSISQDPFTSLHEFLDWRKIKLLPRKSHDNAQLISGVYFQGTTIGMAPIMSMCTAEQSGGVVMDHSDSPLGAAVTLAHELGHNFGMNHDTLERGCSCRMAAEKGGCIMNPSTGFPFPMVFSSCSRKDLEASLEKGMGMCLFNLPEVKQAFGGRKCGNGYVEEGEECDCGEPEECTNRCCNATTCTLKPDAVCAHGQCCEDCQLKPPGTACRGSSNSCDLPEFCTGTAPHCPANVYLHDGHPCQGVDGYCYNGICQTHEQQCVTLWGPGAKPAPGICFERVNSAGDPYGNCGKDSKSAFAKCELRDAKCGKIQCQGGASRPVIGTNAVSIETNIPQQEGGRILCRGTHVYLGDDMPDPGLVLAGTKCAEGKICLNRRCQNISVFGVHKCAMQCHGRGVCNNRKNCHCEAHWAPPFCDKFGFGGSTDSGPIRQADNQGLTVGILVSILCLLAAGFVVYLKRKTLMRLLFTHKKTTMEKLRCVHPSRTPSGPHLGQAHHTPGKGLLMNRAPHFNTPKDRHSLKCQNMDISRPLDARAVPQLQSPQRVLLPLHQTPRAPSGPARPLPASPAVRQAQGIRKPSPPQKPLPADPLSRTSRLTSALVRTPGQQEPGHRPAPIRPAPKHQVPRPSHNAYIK
UniProt Q9Z0F8: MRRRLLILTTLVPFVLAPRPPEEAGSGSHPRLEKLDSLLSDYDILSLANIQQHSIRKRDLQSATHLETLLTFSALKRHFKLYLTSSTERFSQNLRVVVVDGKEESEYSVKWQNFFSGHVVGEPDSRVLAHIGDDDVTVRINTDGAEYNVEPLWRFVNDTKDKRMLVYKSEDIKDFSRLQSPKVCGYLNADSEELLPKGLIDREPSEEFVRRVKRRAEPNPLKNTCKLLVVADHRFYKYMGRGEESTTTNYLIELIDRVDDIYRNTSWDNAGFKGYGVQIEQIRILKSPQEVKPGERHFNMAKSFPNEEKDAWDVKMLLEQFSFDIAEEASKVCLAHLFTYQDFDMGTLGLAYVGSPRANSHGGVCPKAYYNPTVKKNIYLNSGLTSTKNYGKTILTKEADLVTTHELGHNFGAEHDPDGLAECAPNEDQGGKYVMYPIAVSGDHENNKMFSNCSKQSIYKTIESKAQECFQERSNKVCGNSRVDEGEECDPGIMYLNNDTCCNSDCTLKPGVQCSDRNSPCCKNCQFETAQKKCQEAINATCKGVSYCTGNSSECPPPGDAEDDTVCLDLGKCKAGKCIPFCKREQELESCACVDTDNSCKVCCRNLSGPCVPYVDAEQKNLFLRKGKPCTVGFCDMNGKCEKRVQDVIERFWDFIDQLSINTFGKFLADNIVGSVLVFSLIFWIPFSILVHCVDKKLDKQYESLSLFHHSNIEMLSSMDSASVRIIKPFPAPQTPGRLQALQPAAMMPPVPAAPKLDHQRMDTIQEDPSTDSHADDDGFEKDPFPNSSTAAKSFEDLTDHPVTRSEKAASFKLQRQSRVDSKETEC
UniProt Q61072: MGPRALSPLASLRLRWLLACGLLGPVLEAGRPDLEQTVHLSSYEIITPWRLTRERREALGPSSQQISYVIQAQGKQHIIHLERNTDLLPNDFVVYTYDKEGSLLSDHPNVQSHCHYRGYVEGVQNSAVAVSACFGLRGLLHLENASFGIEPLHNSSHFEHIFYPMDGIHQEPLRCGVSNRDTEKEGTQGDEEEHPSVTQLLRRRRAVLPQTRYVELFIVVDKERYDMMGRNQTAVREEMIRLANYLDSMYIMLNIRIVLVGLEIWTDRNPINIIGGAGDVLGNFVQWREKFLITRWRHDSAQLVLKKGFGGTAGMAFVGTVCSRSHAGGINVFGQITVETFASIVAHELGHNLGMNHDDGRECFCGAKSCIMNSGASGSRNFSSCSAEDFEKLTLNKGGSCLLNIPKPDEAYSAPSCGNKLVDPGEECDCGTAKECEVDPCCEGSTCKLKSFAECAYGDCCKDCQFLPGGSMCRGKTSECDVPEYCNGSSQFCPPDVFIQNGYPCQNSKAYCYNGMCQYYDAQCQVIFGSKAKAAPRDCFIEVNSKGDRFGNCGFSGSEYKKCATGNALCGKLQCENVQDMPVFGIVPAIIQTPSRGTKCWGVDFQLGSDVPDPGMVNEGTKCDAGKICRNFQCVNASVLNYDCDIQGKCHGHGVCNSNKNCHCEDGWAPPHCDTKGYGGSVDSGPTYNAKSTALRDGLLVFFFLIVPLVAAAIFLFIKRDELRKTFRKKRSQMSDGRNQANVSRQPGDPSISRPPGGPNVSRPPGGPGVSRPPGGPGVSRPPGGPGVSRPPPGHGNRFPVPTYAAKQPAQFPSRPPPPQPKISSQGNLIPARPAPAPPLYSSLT

What was measured:
[1] = biological target: T1, endogenous MDA5 (mouse lung fibroblasts) (mouse (endogenous in lung fibroblasts)) (UniProt Q8R5F7); assay: co-IP; endogenous proteins in LFs mock-treated or transfected with EMCV RNA (400 ng/ml) for 16 h; IP with anti-MDA5 (or IgG isotype control), protein G magnetic beads, immunoblot
T1 sequence: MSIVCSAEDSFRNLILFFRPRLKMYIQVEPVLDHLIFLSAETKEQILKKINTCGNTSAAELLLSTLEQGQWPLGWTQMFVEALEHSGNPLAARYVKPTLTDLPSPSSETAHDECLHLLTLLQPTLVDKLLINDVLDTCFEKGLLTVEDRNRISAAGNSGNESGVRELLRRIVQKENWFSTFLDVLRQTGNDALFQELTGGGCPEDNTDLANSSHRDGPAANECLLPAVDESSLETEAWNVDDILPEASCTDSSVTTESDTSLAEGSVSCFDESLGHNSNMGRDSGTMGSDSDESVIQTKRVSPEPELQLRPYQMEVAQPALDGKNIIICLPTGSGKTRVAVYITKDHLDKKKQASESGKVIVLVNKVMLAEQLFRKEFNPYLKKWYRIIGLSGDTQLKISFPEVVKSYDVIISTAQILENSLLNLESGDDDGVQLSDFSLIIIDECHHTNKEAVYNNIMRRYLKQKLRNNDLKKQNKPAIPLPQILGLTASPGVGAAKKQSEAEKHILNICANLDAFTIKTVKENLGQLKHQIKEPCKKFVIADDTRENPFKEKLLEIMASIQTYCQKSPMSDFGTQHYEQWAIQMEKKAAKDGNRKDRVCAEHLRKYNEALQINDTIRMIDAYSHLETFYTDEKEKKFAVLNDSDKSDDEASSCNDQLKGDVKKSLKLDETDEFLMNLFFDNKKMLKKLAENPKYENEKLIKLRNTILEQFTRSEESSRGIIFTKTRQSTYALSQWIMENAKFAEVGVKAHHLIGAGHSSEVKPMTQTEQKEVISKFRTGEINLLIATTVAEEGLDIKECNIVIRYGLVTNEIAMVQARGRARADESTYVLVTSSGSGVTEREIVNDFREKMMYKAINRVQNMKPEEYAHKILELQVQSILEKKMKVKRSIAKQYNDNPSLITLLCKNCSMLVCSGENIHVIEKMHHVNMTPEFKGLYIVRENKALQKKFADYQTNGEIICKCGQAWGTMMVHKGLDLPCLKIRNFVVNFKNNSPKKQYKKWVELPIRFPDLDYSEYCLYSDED

[2] = biological target: T2, FLAG-tagged murine MDA5 (mouse) (UniProt Q8R5F7); assay: co-IP; FLAG pull-down with anti-FLAG M2 magnetic beads (4 °C, 4-16 h) from lysates of HEK293T cells co-expressing the two proteins for 24 h; immunoblot
T2 sequence: T1 sequence

[3] = biological target: FLAG-tagged human MDA5 (human) (UniProt Q9BYX4); assay: as above

binding [1] | binding [2] | binding [3] | Substance
no binding | – | – | endogenous ADAM12 (mouse lung fibroblasts) (from UniProt Q61824)
no binding | – | – | endogenous ADAM17 (mouse lung fibroblasts) (from UniProt Q9Z0F8)
– | binds | binds | murine ADAM9 catalytically inactive mutant (E→A) (from UniProt Q61072)

These are yes or no findings as the source states them, for the method shown. In cells and extracts the contact can be indirect. For some of these results: Binding calls can cover weak binding; strength is not graded here. For some of these results: Where a sequence is shown, tags or fusion partners need not be part of it.
